From the supplement of paper PMC7666118
Some of the results follow.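 The calls were made as follows: active = dose-dependent thermal stabilisation significant by F-test of dose-response against flat model at 10% FDR; inactive = not significant.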

By UniProt entry, the sequences of proteins in these tests, tags left out. Where a name states a change or a piece, a line headed by the entry shows the natural chain unless it says otherwise.
UniProt O95433, whole entry: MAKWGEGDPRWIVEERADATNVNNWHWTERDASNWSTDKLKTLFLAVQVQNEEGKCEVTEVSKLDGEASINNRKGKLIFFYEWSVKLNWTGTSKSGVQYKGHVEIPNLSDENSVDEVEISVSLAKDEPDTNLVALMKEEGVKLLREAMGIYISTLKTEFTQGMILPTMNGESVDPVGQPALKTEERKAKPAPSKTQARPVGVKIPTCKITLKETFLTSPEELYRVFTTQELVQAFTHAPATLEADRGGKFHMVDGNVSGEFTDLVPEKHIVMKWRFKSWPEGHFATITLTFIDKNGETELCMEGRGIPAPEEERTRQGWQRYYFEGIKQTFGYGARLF
UniProt P49189: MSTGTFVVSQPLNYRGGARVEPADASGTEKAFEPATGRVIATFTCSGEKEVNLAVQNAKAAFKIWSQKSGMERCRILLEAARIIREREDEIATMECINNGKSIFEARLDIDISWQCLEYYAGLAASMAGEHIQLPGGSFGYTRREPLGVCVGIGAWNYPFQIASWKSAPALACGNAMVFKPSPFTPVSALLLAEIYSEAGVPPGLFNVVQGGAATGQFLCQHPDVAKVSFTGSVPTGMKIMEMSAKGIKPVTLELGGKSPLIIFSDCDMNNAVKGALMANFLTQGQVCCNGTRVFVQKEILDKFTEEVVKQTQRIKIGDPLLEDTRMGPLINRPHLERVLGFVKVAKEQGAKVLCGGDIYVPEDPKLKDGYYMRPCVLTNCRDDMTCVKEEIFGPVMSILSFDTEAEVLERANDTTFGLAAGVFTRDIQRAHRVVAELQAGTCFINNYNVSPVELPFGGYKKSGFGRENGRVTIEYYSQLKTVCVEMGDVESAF
UniProt Q562R1, whole entry: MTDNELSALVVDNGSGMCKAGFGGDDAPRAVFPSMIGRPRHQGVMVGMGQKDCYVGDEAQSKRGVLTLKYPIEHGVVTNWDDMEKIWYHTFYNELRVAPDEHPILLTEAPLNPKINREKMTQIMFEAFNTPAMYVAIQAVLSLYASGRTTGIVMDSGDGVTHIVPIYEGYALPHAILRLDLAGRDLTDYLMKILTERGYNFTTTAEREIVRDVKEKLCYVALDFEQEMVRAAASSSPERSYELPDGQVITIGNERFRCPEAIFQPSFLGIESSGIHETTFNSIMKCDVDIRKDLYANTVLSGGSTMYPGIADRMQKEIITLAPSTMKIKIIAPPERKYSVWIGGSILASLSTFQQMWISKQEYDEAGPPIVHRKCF
UniProt Q9NQW6: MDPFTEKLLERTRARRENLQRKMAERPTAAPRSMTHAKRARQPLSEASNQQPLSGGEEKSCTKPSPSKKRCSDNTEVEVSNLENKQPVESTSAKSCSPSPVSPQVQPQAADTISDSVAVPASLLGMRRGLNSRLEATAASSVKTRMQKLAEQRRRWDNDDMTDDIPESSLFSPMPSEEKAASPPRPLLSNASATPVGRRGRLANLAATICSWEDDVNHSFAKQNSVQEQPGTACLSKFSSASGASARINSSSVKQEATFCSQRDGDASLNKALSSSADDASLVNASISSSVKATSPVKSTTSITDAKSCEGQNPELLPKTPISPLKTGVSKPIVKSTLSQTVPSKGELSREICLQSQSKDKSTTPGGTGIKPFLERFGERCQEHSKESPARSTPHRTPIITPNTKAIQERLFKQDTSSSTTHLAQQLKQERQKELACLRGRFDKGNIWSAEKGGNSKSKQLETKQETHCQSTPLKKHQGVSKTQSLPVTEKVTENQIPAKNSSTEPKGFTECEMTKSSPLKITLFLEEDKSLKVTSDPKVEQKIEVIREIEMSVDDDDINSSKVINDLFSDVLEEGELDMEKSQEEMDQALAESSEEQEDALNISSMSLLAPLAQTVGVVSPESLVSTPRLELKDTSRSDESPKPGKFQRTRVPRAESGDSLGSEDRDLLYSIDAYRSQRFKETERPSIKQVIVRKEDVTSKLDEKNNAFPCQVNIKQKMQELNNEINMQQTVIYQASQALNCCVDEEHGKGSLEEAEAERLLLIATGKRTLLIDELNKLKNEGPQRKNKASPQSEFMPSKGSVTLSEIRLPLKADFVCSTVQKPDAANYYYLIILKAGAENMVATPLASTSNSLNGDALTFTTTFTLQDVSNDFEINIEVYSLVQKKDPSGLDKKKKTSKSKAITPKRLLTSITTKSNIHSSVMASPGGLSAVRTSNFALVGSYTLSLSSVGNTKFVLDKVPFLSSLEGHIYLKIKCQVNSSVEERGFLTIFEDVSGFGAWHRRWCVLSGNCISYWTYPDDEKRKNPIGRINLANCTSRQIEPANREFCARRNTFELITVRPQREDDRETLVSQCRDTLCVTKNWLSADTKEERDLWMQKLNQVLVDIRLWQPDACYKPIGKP
UniProt P55263: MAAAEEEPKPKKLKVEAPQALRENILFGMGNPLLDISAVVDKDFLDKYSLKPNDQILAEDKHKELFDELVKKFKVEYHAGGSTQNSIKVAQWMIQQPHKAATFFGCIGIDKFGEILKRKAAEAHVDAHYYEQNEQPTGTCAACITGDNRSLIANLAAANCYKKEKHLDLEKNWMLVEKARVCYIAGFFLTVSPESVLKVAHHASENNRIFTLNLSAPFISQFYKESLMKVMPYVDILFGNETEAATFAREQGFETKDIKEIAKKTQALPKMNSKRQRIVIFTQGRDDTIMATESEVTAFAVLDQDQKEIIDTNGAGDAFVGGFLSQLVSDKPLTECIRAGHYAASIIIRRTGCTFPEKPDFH
UniProt Q9UKG1: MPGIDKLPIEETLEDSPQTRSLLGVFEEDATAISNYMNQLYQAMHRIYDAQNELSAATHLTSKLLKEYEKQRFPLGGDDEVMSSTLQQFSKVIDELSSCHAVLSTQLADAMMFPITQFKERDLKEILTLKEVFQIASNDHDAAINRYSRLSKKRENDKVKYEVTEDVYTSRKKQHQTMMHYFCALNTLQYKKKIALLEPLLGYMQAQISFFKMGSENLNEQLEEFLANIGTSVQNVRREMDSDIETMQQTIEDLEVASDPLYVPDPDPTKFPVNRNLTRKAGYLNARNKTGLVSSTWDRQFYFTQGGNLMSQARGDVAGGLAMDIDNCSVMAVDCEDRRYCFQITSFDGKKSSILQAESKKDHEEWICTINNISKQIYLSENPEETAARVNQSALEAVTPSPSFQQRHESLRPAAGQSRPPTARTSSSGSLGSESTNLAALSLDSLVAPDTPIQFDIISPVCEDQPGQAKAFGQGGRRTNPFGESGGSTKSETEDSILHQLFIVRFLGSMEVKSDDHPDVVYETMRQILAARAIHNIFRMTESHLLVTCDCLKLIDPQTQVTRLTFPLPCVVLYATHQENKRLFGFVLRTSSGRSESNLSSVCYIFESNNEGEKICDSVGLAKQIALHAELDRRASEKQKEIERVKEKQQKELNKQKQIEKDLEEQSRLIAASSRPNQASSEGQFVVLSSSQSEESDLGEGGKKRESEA
UniProt Q8IZ07: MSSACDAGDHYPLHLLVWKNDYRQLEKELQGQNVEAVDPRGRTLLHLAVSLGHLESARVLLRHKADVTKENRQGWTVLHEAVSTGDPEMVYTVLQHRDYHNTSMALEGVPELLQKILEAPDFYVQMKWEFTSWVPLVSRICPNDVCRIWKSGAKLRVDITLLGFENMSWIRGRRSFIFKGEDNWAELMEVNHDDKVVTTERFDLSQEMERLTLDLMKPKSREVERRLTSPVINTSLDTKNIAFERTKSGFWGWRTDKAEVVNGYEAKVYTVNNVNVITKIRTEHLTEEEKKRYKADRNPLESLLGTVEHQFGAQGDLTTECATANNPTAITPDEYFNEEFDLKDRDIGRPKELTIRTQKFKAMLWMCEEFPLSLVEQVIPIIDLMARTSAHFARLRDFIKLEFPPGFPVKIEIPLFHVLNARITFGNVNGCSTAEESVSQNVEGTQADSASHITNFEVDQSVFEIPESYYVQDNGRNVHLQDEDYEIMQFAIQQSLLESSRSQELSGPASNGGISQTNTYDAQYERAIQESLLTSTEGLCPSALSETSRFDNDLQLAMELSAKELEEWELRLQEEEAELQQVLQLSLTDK
UniProt P59780: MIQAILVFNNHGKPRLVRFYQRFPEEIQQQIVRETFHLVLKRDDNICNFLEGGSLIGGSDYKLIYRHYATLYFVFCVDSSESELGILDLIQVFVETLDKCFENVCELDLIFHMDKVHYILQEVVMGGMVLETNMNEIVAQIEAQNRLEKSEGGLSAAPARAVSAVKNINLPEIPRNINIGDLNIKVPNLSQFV
UniProt Q96Q42: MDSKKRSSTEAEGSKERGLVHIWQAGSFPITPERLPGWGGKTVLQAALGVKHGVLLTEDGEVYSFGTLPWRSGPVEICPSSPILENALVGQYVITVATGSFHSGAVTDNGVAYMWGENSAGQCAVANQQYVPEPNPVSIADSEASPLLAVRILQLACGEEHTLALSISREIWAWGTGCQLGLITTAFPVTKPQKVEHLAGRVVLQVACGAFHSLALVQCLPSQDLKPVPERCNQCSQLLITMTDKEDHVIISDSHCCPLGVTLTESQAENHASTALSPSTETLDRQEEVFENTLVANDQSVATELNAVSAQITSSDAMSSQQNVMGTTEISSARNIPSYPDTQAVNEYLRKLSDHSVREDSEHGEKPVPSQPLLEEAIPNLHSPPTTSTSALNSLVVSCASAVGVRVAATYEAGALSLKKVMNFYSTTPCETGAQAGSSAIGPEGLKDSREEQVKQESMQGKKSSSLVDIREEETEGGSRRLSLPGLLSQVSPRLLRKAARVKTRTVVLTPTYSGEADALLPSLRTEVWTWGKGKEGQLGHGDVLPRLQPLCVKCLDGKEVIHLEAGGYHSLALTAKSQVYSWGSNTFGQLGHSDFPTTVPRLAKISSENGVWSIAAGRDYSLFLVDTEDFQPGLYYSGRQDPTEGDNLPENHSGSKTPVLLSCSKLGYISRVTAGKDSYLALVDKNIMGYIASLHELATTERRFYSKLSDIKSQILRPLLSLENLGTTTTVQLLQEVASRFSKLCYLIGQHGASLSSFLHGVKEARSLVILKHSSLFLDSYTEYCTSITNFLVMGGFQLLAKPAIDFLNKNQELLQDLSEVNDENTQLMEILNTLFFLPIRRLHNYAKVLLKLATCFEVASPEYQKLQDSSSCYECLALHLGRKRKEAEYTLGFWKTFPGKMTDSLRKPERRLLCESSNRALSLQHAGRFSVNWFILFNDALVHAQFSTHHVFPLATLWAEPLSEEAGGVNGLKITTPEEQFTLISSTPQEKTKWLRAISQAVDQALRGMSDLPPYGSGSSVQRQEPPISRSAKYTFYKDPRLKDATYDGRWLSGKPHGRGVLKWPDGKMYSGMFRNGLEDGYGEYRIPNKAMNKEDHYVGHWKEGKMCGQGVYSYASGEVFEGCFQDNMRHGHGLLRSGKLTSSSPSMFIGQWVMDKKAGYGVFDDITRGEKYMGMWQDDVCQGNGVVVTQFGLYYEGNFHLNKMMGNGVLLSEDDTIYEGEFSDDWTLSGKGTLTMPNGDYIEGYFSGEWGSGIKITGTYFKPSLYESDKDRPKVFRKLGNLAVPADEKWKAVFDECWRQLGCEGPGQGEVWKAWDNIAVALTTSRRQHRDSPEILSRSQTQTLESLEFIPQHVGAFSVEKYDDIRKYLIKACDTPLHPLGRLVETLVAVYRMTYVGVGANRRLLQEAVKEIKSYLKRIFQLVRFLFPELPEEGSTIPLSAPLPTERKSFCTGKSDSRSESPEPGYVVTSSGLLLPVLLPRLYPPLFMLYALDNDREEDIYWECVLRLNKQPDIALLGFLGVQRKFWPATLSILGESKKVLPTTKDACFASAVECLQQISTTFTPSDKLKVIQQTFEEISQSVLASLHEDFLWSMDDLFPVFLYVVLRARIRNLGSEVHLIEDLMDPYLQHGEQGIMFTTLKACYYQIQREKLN
UniProt Q9UEY8: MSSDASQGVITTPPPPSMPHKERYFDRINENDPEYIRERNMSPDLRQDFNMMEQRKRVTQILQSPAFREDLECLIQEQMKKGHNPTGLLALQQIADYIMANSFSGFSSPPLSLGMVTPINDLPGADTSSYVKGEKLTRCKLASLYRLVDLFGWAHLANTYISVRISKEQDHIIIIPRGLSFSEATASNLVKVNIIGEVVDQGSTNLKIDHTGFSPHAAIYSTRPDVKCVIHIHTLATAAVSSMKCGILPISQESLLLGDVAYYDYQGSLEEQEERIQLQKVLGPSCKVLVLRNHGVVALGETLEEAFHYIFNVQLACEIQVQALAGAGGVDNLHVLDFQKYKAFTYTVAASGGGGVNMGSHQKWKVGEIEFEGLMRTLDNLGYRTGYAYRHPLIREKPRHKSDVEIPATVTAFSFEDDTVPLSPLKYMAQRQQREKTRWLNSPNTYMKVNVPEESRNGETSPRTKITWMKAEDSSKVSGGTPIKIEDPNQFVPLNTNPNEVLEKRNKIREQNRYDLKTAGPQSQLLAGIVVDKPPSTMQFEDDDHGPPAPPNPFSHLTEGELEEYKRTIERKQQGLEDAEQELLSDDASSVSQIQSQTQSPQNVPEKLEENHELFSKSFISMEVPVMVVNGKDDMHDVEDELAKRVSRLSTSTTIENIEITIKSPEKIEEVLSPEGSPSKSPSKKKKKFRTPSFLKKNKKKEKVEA

What follows are targets tested with Nc1nc2c(ncn2[C@@H]2O[C@H](COP(=O)(O)OP(=O)(O)OP(=O)(O)O)[C@@H](O)[C@H]2O)c(=O)[nH]1 (assay: dose-dependent thermal stabilisation call (2D-TPP, DLPTP, 10% FDR) (binary (1 = stabilised)); higher = stabilised by the compound). Conditions: system: Jurkat gel-filtered lysate; concentration range 1-500 µM.
With AGFG1 (UniProt P52594) the “dose-dependent thermal stabilisation call” value was inactive: 0. In the case of AHSA1 (UniProt O95433), the “dose-dependent thermal stabilisation call” value is reported as inactive: 0. With ABCF1 (UniProt Q8NE71) the “dose-dependent thermal stabilisation call” value was active: 1. AKR1C3 (UniProt P42330) was tested, and the “dose-dependent thermal stabilisation call” value was inactive: 0. In the case of AARS (UniProt P49588), the “dose-dependent thermal stabilisation call” value is reported as inactive: 0. For ALDH9A1 (UniProt P49189), the “dose-dependent thermal stabilisation call” value was active: 1. With ACTBL2 (UniProt Q562R1) the “dose-dependent thermal stabilisation call” value was active: 1. ARG2 (UniProt P78540) was tested, and the “dose-dependent thermal stabilisation call” value was inactive: 0. In the case of AGA (UniProt P20933), the “dose-dependent thermal stabilisation call” value is reported as inactive: 0. In the case of ACTR3B (UniProt Q9P1U1), the “dose-dependent thermal stabilisation call” value is reported as inactive: 0. For AKT1 (UniProt P31749), the “dose-dependent thermal stabilisation call” value was active: 1. In the case of ANLN (UniProt Q9NQW6), the “dose-dependent thermal stabilisation call” value is reported as inactive: 0. ACTR1A (UniProt P61163) was tested, and the “dose-dependent thermal stabilisation call” value was active: 1. With APBB1IP (UniProt Q7Z5R6) the “dose-dependent thermal stabilisation call” value was inactive: 0. AP1S2 (UniProt P56377) was tested, and the “dose-dependent thermal stabilisation call” value was inactive: 0. In the case of ADK (UniProt P55263), the “dose-dependent thermal stabilisation call” value is reported as inactive: 0. ACYP2 (UniProt P14621) was tested, and the “dose-dependent thermal stabilisation call” value was inactive: 0. ACAA2 (UniProt P42765) was tested, and the “dose-dependent thermal stabilisation call” value was inactive: 0. With APPL1 (UniProt Q9UKG1) the “dose-dependent thermal stabilisation call” value was inactive: 0. ACO1 (UniProt P21399) was tested, and the “dose-dependent thermal stabilisation call” value was inactive: 0. In the case of ANAPC16 (UniProt Q96DE5), the “dose-dependent thermal stabilisation call” value is reported as inactive: 0. ARHGAP27 (UniProt Q6ZUM4) was tested, and the “dose-dependent thermal stabilisation call” value was active: 1. With ACAD8 (UniProt Q9UKU7) the “dose-dependent thermal stabilisation call” value was inactive: 0. In the case of APRT (UniProt P07741), the “dose-dependent thermal stabilisation call” value is reported as inactive: 0. AHCYL2 (UniProt Q96HN2) was tested, and the “dose-dependent thermal stabilisation call” value was inactive: 0. In the case of AHNAK (UniProt Q09666), the “dose-dependent thermal stabilisation call” value is reported as inactive: 0. ALDH5A1 (UniProt P51649) was tested, and the “dose-dependent thermal stabilisation call” value was inactive: 0. For ACOT13 (UniProt Q9NPJ3), the “dose-dependent thermal stabilisation call” value was inactive: 0. ANKRD13A (UniProt Q8IZ07) was tested, and the “dose-dependent thermal stabilisation call” value was inactive: 0. AP3S2 (UniProt P59780) was tested, and the “dose-dependent thermal stabilisation call” value was active: 1. With ALG13 (UniProt Q9NP73) the “dose-dependent thermal stabilisation call” value was inactive: 0. For ALS2 (UniProt Q96Q42), the “dose-dependent thermal stabilisation call” value was inactive: 0. ARCN1 (UniProt P48444) was tested, and the “dose-dependent thermal stabilisation call” value was inactive: 0. ADD3 (UniProt Q9UEY8) was tested, and the “dose-dependent thermal stabilisation call” value was inactive: 0. AKT2 (UniProt P31751) was tested, and the “dose-dependent thermal stabilisation call” value was inactive: 0. In the case of ACTN4 (UniProt O43707), the “dose-dependent thermal stabilisation call” value is reported as active: 1.
